Reference: US12351591B2, “KRas inhibitors” (ELI LILLY AND COMPANY, priority 2022, dated 2025)
Some results were stated once for a whole list of compounds, not compound by compound.

The chains behind the UniProt entries cited, without tags or fusion partners. Residues count along the entry.
UniProt P01116, 1-188 isoform P01116-2 G12D: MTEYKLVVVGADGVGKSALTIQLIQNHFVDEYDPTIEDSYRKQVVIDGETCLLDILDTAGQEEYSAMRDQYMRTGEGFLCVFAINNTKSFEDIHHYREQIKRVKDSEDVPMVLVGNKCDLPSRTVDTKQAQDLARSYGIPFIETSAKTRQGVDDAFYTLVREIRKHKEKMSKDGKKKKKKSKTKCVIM

What was measured:
[1] = target: HRAS (Homo sapiens, UniProt P01112); experiment: Cellular Phospho-ERK AlphaLISA, MEF-HRAS cells (RAS-less MEFs expressing HRAS only); type: cell-based, mouse; conditions: 2 h, read-out: relative IC50, phospho-ERK, MEF-HRAS
[2] = target: NRAS (Homo sapiens, UniProt P01111); experiment: Cellular Phospho-ERK AlphaLISA, MEF-NRAS cells (RAS-less MEFs expressing NRAS only); type: cell-based, mouse; conditions: 2 h, read-out: relative IC50, phospho-ERK, MEF-NRAS
[3] = target: T1, KRas G12D (Homo sapiens, UniProt P01116, G12D); experiment: PANC-1 Cellular Active RAS GTPase ELISA (KRas G12D Mutation); type: cell-based; conditions: PANC-1 cells, 2 hours; read-out: relative IC50, inhibition of constitutive RAS GTPase activity (KRas G12D mutant)
T1 construct: host or cells: PANC-1

Compound	IC50 [1]	IC50 [2]	IC50 [3]
CO[C@H](C)CN1CC2CCC(C1)N2c1nc(OC[C@@]23CCCN2C[C@H](F)C3)nc2c(F)c(-c3ncc(F)c4sc(N)c(C#N)c34)c3c(c12)COC3 [Example 126, 2-Amino-7-fluoro-4-[5-fluoro-3-[[(2R,8S)-2-fluoro-1,2,3,5,6,7-hexahydropyrrolizin-8-yl]methoxy]-1-[3-[(2R)-2-methoxypropyl]-3,8-diazabicyclo[3.2.1]octan-8-yl]-7,9-dihydrofuro[3,4-f]quinazolin-6-yl]thieno[3,2-c]pyridine-3-carbonitrile]	> 2000 nM	> 2000 nM	< 100 nM
COC1CN(c2nc(OC[C@@]34CCCN3C[C@H](F)C4)nc3c(F)c(-c4ncc(F)c5sc(N)c(C#N)c45)c4c(c23)COC4)C1 [Example 319, 2-Amino-7-fluoro-4-[5-fluoro-3-[[(2R,8S)-2-fluoro-1,2,3,5,6,7-hexahydropyrrolizin-8-yl]methoxy]-1-(3-methoxyazetidin-1-yl)-7,9-dihydrofuro[3,4-f]quinazolin-6-yl]thieno[3,2-c]pyridine-3-carbonitrile]	> 2000 nM	> 2000 nM	–
CN1CC2CCC(C1)N2c1nc(OC[C@@]23CCCN2C[C@H](F)C3)nc2c(F)c(-c3ncc(F)c4sc(N)c(C#N)c34)c3c(c12)COC3 [Example 121, 2-Amino-7-fluoro-4-[5-fluoro-3-[[(2R,8S)-2-fluoro-1,2,3,5,6,7-hexahydropyrrolizin-8-yl]methoxy]-1-(3-methyl-3,8-diazabicyclo[3.2.1]octan-8-yl)-7,9-dihydrofuro[3,4-f]quinazolin-6-yl]thieno[3,2-c]pyridine-3-carbonitrile]	> 2000 nM	> 2000 nM	< 100 nM
N#Cc1c(N)sc2c(F)cnc(-c3c4c(c5c(N6C7CCC6CN(C[C@H]6CCO6)C7)nc(OC[C@@]67CCCN6C[C@H](F)C7)nc5c3F)COC4)c12 [Example 123, 2-Amino-7-fluoro-4-[5-fluoro-3-[[(2R,8S)-2-fluoro-1,2,3,5,6,7-hexahydropyrrolizin-8-yl]methoxy]-1-[3-[[(2R)-oxetan-2-yl]methyl]-3,8-diazabicyclo[3.2.1]octan-8-yl]-7,9-dihydrofuro[3,4-f]quinazolin-6-yl]thieno[3,2-c]pyridine-3-carbonitrile]	> 2000 nM	> 2000 nM	< 100 nM
N#Cc1c(N)sc2c(F)cnc(-c3c4c(c5c(O)nc(OC[C@@]67CCCN6C[C@H](F)C7)nc5c3F)COC4)c12 [Example 322, 2-Amino-7-fluoro-4-[5-fluoro-3-[[(2R,8S)-2-fluoro-1,2,3,5,6,7-hexahydropyrrolizin-8-yl]methoxy]-1-hydroxy-7,9-dihydrofuro[3,4-f]quinazolin-6-yl]thieno[3,2-c]pyridine-3-carbonitrile]	> 2000 nM	> 2000 nM	–
C[C@@H](O)CN1CC2CCC(C1)N2c1nc(OC[C@H](C)N2CCOCC2)nc2c(F)c(-c3ncc(F)c4sc(N)c(C#N)c34)c3c(c12)COC3 [Example 358, 2-Amino-7-fluoro-4-[5-fluoro-1-[3-[(2R)-2-hydroxypropyl]-3,8-diazabicyclo[3.2.1]octan-8-yl]-3-[(2S)-2-morpholinopropoxy]-7,9-dihydrofuro[3,4-f]quinazolin-6-yl]thieno[3,2-c]pyridine-3-carbonitrile]	–	–	< 100 nM
C[C@H](O)CN1CC2CCC(C1)N2c1nc(OC[C@@]23CCCN2C[C@H](F)C3)nc2c(F)c(-c3ncc(F)c4sc(N)c(C#N)c34)c3c(c12)COC3 [Example 171, 2-Amino-7-fluoro-4-[5-fluoro-3-[[(2R,8S)-2-fluoro-1,2,3,5,6,7-hexahydropyrrolizin-8-yl]methoxy]-1-[3-[(2S)-2-hydroxypropyl]-3,8-diazabicyclo[3.2.1]octan-8-yl]-7,9-dihydrofuro[3,4-f]quinazolin-6-yl]thieno[3,2-c]pyridine-3-carbonitrile]	–	–	< 100 nM
C[C@@H](O)CN1CC2CCC(C1)N2c1nc(OCC2(CO)CCCN2C)nc2c(F)c(-c3c(F)ccc4sc(N)c(C#N)c34)c3c(c12)COC3 (single isomer, unassigned) [Example 182]	–	–	< 100 nM
C[C@@H](CO)Oc1nc(N2C3CCC2CNC3)c2c3c(c(-c4ccc(F)c5sc(N)c(C#N)c45)c(Cl)c2n1)COC3 [Example 21, 2-Amino-4-[5-chloro-1-(3,8-diazabicyclo[3.2.1]octan-8-yl)-3-[(1S)-2-hydroxy-1-methyl-ethoxy]-7,9-dihydrofuro[3,4-f]quinazolin-6-yl]-7-fluoro-benzothiophene-3-carbonitrile]	–	–	< 100 nM
N#Cc1c(N)sc2c(F)ccc(-c3c4c(c5c(N6C7CCC6CN(CC6COC6)C7)nc(OC[C@@]67CCCN6C[C@H](F)C7)nc5c3F)COC4)c12 (single isomer, unassigned) [Example 105]	–	–	< 100 nM
N#Cc1c(N)sc2ccnc(-c3c4c(c5c(N6C7CCC6CNC7)nc(OC[C@@]67CCCN6C[C@H](F)C7)nc5c3F)COC4)c12 [Example 26, 2-Amino-4-[1-(3,8-diazabicyclo[3.2.1]octan-8-yl)-5-fluoro-3-[[(2R,8S)-2-fluoro-1,2,3,5,6,7-hexahydropyrrolizin-8-yl]methoxy]-7,9-dihydrofuro[3,4-f]quinazolin-6-yl]thieno[3,2-c]pyridine-3-carbonitrile]	–	–	< 100 nM
N#Cc1c(N)sc2c(F)ccc(-c3c4c(c5c(N6C7CCC6CNC7)nc(OC[C@@H]6CCCN6CCF)nc5c3F)COC4)c12 [Example 11, 2-Amino-4-[1-(3,8-diazabicyclo[3.2.1]octan-8-yl)-5-fluoro-3-[[(2S)-1-(2-fluoroethyl)pyrrolidin-2-yl]methoxy]-7,9-dihydrofuro[3,4-f]quinazolin-6-yl]-7-fluoro-benzothiophene-3-carbonitrile]	–	–	< 100 nM
C[C@@H](O)CN1CC2CCC(C1)N2c1nc(OC[C@@]23CCCN2C[C@H](F)C3)nc2c(F)c(-c3cccc4sc(N)c(C#N)c34)c3c(c12)COC3 (single isomer, unassigned) [Example 160]	–	–	< 100 nM
N#Cc1c(N)sc2c(F)ccc(-c3c4c(c5c(N6C7CCC6CNC7)nc(CO)nc5c3Cl)COC4)c12 (single isomer, unassigned; isomer 2) [Example 18, 2-Amino-4-[5-chloro-1-(3,8-diazabicyclo[3.2.1]octan-8-yl)-3-(hydroxymethyl)-7,9-dihydrofuro[3,4-f]quinazolin-6-yl]-7-fluoro-benzothiophene-3-carbonitrile, Isomer 2]	–	–	< 100 nM
COC1CN(C)C1(C)COc1ccc2c3c(c(-c4ccc(F)c5sc(N)c(C#N)c45)c(Cl)c2n1)COC3 (single isomer, unassigned; isomer 1) [Example 41, 2-Amino-4-[5-chloro-7-[(3-methoxy-1,2-dimethyl-azetidin-2-yl)methoxy]-1,3-dihydrofuro[3,4-f]quinolin-4-yl]-7-fluoro-benzothiophene-3-carbonitrile, Isomer 1]	–	–	< 100 nM
CN1CCC[C@H]1COc1ncc2c3c(c(-c4ncc(F)c5sc(N)c(C#N)c45)c(F)c2n1)COC3 [Example 279, 2-Amino-7-fluoro-4-[5-fluoro-3-[[(2S)-1-methylpyrrolidin-2-yl]methoxy]-7,9-dihydrofuro[3,4-f]quinazolin-6-yl]thieno[3,2-c]pyridine-3-carbonitrile]	–	–	< 100 nM
COCCOCCCN1CC2CCC(C1)N2c1nc(OC[C@@]23CCCN2C[C@H](F)C3)nc2c(F)c(-c3ncc(F)c4sc(N)c(C#N)c34)c3c(c12)COC3 [Example 226, 2-Amino-7-fluoro-4-[5-fluoro-3-[[(2R,8S)-2-fluoro-1,2,3,5,6,7-hexahydropyrrolizin-8-yl]methoxy]-1-[3-[3-(2-methoxyethoxy)propyl]-3,8-diazabicyclo[3.2.1]octan-8-yl]-7,9-dihydrofuro[3,4-f]quinazolin-6-yl]thieno[3,2-c]pyridine-3-carbonitrile]	–	–	< 100 nM
CN1CC2CC(C1)N2c1nc(OC[C@@]23CCCN2C[C@H](F)C3)nc2c(F)c(-c3c(F)ccc4oc(N)c(C#N)c34)c3c(c12)COC3 [Example 115, 2-Amino-5-fluoro-4-[5-fluoro-3-[[(2R,8S)-2-fluoro-1,2,3,5,6,7-hexahydropyrrolizin-8-yl]methoxy]-1-(3-methyl-3,6-diazabicyclo[3.1.1]heptan-6-yl)-7,9-dihydrofuro[3,4-f]quinazolin-6-yl]benzofuran-3-carbonitrile]	–	–	< 100 nM
COCCN1CC2CCC(C1)N2c1nc(OC[C@@]23CCCN2C[C@H](F)C3)nc2c(F)c(-c3ncc(C)c4sc(N)c(C#N)c34)c3c(c12)COC3 [Example 133, 2-Amino-4-[5-fluoro-3-[[(2R,8S)-2-fluoro-1,2,3,5,6,7-hexahydropyrrolizin-8-yl]methoxy]-1-[3-(2-methoxyethyl)-3,8-diazabicyclo[3.2.1]octan-8-yl]-7,9-dihydrofuro[3,4-f]quinazolin-6-yl]-7-methyl-thieno[3,2-c]pyridine-3-carbonitrile]	–	–	< 100 nM
COCCN1CC2CCC(C1)N2c1nc(OC[C@@H]2CCCN2C)nc2c(F)c(-c3c(F)ccc4sc(N)c(C#N)c34)c3c(c12)COC3 (single isomer, unassigned) [Example 150]	–	–	< 100 nM
CNC(=O)CCN1CC2CCC(C1)N2c1nc(OC[C@@]23CCCN2C[C@H](F)C3)nc2c(F)c(-c3c(F)ccc4sc(N)c(C#N)c34)c3c(c12)COC3 (single isomer, unassigned) [Example 189]	–	–	< 100 nM
COCCCN1CC2CCC(C1)N2c1nc(OC[C@@H]2C[C@@H](OC)CN2C)nc2c(F)c(-c3ncc(F)c4sc(N)c(C#N)c34)c3c(c12)COC3 [Example 238, 2-Amino-7-fluoro-4-[5-fluoro-3-[[(2S,4R)-4-methoxy-1-methyl-pyrrolidin-2-yl]methoxy]-1-[3-(3-methoxypropyl)-3,8-diazabicyclo[3.2.1]octan-8-yl]-7,9-dihydrofuro[3,4-f]quinazolin-6-yl]thieno[3,2-c]pyridine-3-carbonitrile]	–	–	< 100 nM
N#Cc1c(N)sc2cccc(-c3c4c(c5c(N6C7CCC6CN(CCCO)C7)nc(OC[C@H]6COCCO6)nc5c3F)COC4)c12 (single isomer, unassigned) [Example 214]	–	–	< 100 nM
